Assay: Determination of log K by ITC (isothermal titration calorimetry)
Format: binding
Conditions: pH 10
Description: Chelating agents can also be characterized by the binding constant of the chelating agent (chelator) and calcium ions. This constant can be determined by ITC (isothermal titration calorimetry) as described by AD Nielsen, CC Fuglsang and […], Analytical Biochemistry Vol. 314 (2003) page 227-234 and T Wiseman, S Williston, JF Brandts and L-N Lin, Analytical Biochemistry Vol. 179 (1989) page 131-137. All glassware and plastic bottles used are washed with a 1 % (w/w) EDTA solution and subsequently rinsed thoroughly in Chelex 100 treated ultrapure water (Milli-Q water). Solutions are stored in plastic bottles and kept at 5°C until use. […] • 125 μM chelant in 20 mM HEPES, pH 8 or 125 μM chelant in 20 mM glycine, pH 10 • 4 mM CaCl2 in 20 mM HEPES, pH 8 or 4 mM CaCl2 in 20 mM glycine, pH 10 • Ultrapure water (Milli-Q water) […] All solutions are degassed by stirring under vacuum before the experiments. INSTRUMENT: MCS-ITC (MicroCal Inc., Northampton, MA, USA) The reference cell is filled with ultrapure water (Milli-Q water). The sample cell is filled with the chelant solution at the selected pH and the syringe is filled with the calcium solution at the selected pH. The solutions are equilibrated to the desired temperature, e.g. 19°C. […] The obtained signals from the ITC are then integrated using the Origin software supplied by MicroCal Inc. To obtain the binding isotherms, regression routines are made using the same software package. […] Presently preferred is the "OneSites" model which gives the best fit for most of the commonly used chelating agents, i.e. the residuals are evenly distributed around zero. […] Alternatively, the chelating agents can be characterized by the binding constant of the chelating agent (chelator) and calcium ions. This constant can be determined by ITC (isothermal titration calorimetry) as described by AD Nielsen, CC Fuglsang and […], Analytical Biochemistry Vol. 314 (2003) page 227-234 and T Wiseman, S Williston, JF Brandts and L-N Lin, Analytical Biochemistry Vol. 179 (1989) page 131-137. The procedure for the determination of log K is described in detail above under "Materials and Methods". Using this procedure for determination of log K, the following log K values for several chelating agents were determined at pH 10 (Table 12.3). Table 12.3

Row | Compound | Log K relative to log K for citrate
1 | O=C(O)CC(O)(CC(=O)O)C(=O)O [Citrate] | 1.00
2 | O=C(O)CN(CCN(CC(=O)O)CC(=O)O)CCN(CC(=O)O)CC(=O)O [DTPA, diethylenetriaminepentaacetic acid] | 2.7
3 | O=C(O)CN(CCN(CC(=O)O)CC(=O)O)CC(=O)O [EDTA, ethylene diamine tetraacetate] | 2.7
4 | O=C(O)CN(CCOCCOCCN(CC(=O)O)CC(=O)O)CC(=O)O [EGTA, ethylene glycol tetraacetic acid] | 3.0
5 | CC(O)(P(=O)(O)O)P(=O)(O)O [HEDP, 1-Hydroxyethylidene-1,1-Diphosphonic Acid] | 2.0
6 | C[C@@H](C(=O)O)N(CC(=O)O)CC(=O)O [MGDA, methylglycinediacetic acid or N,N'-bis(carboxymethyl)alanine] | 0.33

Source: patent EP3122861B1, “LIQUID DETERGENT COMPOSITIONS COMPRISING AN ALPHA-AMYLASE” (priority 2014, dated 2015)
